Source: patent publication US8278262B2 (BioNTech AG, priority 2004, dated 2012)
Plain letter strings leave the end groups untold.

Tests used:
[1] = general procedure: Fmoc solid-phase peptide synthesis; NovaSyn TGR; HBTU/HOBt/DIEA; HATU/DIEA for first residue; DIC/HOBt for cysteine; conditions: whole synthesis, calculated using the program of the ABI 433 peptide synthesizer, scale 0.1 mmol, several disulfide bridges, sequence written open
[2] = general procedure: Fmoc solid-phase peptide synthesis; NovaSyn TGR amide resin, 0.23 mmol/g; HBTU/HOBt/DIEA; HATU/DIEA for first residue; DIC/HOBt for cysteine; conditions: whole synthesis, scale of the general procedure 0.1 mmol, several disulfide bridges, sequence written open

GVCPKILKKCRRDSDCPGACICRGNGYCG
crude yield [1]: 66.6%
difficulty met [2]: As products from incomplete coupling were detected: peak 1: missing Pro; peak 2: missing TyrCys
